Results published in PubChem BioAssay AID504834 (National Center for Advancing Translational Sciences (NCATS), 2011).
The campaign covered roughly 320,000 compounds. About 22,000 (6.9%) were called active. Inconclusive means that the source gave no clear call. Such entries were picked first, then a sample of the others. Calls come from the whole dose curve; as a rule, active = well fitted inhibition curve with a large enough effect; inconclusive = small, poorly fitted or top-dose-only effect, or another doubt; inactive = no such curve, though single readings can be large or run the other way. Where the call is inconclusive, the potency comes from a doubtful curve fit.

test: Primary qHTS for delayed death inhibitors of the malarial parasite plastid, 96 hour incubation; conditions: P. falciparum luciferase reporter growth; series mostly up to 28.7 µM
Procedure, shortened: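 Readout is luminescence from an integrated firefly luciferase in P. falciparum. Red cells, 2% hematocrit and 0.05% parasitemia final, were cultured with compound through two parasite generations (96 hours) at 37 C, 5% CO2.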
Potency is the fitted concentration of half-maximal effect.

Row | SMILES | Potency
1 | O=C(C1CC(=O)N(c2ccc(F)cc2)C1)N1CCN(c2ccc(F)cc2)CC1 (configuration not stated) | inconclusive: 18.5 µM [inhibitor, single point]
2 | Cc1ccc(S(=O)(=O)N2CCN(C(=O)C(F)(F)F)C2c2ccc(N(C)C)cc2)cc1 (configuration not stated) | active: 13.1 µM
3 | O=C(NNc1ccc(C2CCCCC2)cc1)C(O)(c1ccccc1)c1cccs1 (configuration not stated) | inactive
4 | CCOc1cc(/C=C2\CCn3c2nc2cc(Cl)ccc2c3=O)ccc1O | inactive
5 | C=CCNC(=O)O/N=C/c1csc([N+](=O)[O-])c1 | inconclusive: 3.29 µM [inhibitor, partial curve, poor fit]
6 | OCC(O)/C=N/Nc1nc2ccccc2s1 (configuration not stated) | inconclusive: 18.5 µM [inhibitor, single point]
7 | O=C(c1cc(S(=O)(=O)N2CCOCC2)ccc1F)N1CCCc2ccccc21 | inactive
8 | Clc1ccccc1-c1nnc(CNC2CC2)o1 | inactive
9 | CCOc1nc(SCCOc2ccc(C)cc2)nc(N(C)C)n1 | inconclusive: 9.28 µM [inhibitor, single point]
10 | COc1ccc(/C=N/NC(=O)c2ccccc2)cc1OS(=O)(=O)c1ccccc1 | inconclusive: 11.7 µM [inhibitor, single point]
11 | Cc1csc(=O)n1CC(=O)Nc1nc2ccccc2s1 | inconclusive: 9.28 µM [inhibitor, partial curve, poor fit]
12 | CNC(=O)C(=O)NCCN1CCN(C(=O)c2ccc([N+](=O)[O-])cc2)CC1 | inconclusive: 5.86 µM [inhibitor, partial curve]
13 | O=C(O)c1ccc(N=Nc2c(O)[nH]c3ccccc23)cc1 | inconclusive: 2.94 µM [inhibitor, full curve, poor fit]
14 | COc1cc2c(cc1OC)CN(CC(=O)Nc1ccc(S(=O)(=O)N(C)C)cc1)CC2 | inconclusive: 9.28 µM [inhibitor, partial curve]
15 | COc1ccc(CCN2CC(C(=O)N(C)CCc3cn[nH]c3)CCC2=O)cc1 (configuration not stated) | inconclusive: 13.1 µM [inhibitor, single point]
16 | O=C(Nc1ccc(Cl)cn1)C1CCN(S(=O)(=O)c2cccs2)CC1 | inactive
17 | COc1cccc(C2=NN(S(C)(=O)=O)C(c3cccs3)C2)c1 (configuration not stated) | inconclusive: 10.4 µM [inhibitor, single point]
18 | COc1ccc([C@@H]2[C@@H]3C(=O)N(C(C)(C)C)C(=O)[C@@H]3[C@]3(Cc4ccccc4)C(=O)N(c4ccc(Br)cc4)C(=O)N23)cc1 | active: 5.22 µM
19 | O=C(NCc1ccccc1)c1cnc2n(c1=O)CCS2 | inactive
20 | CCCN1C(=O)/C(=C/c2c(N3CCNC(=O)C3CC(=O)OCC)nc3c(C)cccn3c2=O)SC1=S (configuration not stated) | inconclusive: 2.62 µM [inhibitor, full curve]
21 | CCOC(=O)c1cc(-c2nnc(-c3ccc(Oc4ccccc4)cc3)o2)c(C)nc1C | inconclusive: 10.4 µM [inhibitor, single point]
22 | CCOC(=O)CCN1C(=O)c2ccccc2Sc2ncccc21 | inconclusive: 3.29 µM [inhibitor, full curve]
23 | O=C(NCc1ccccc1)c1ccccc1NC(=O)C1CCCCC1 | inactive

Of the compounds above, two have an NH in an aromatic ring.
Row | SMILES | Potency
13 | O=C(O)c1ccc(N=Nc2c(O)[nH]c3ccccc23)cc1 | inconclusive: 2.94 µM [inhibitor, full curve, poor fit]
15 | COc1ccc(CCN2CC(C(=O)N(C)CCc3cn[nH]c3)CCC2=O)cc1 (configuration not stated) | inconclusive: 13.1 µM [inhibitor, single point]

The listing continues.

Row | SMILES | Potency
24 | COc1ccc(NC(=O)C2CC(c3ccccc3O)=NO2)cc1OC (configuration not stated) | inconclusive: 13.1 µM [inhibitor, single point]
25 | CCCN(C(=O)c1cc(S(=O)(=O)N(C)c2ccc(OCC)cc2)ccc1C)C1CCS(=O)(=O)C1 (configuration not stated) | inconclusive: 13.1 µM [inhibitor, single point]
26 | O=C(Nc1ccc(N2CCCC2)cc1)c1ccc(Cl)cc1Cl | inactive
27 | COC(=O)c1[nH]c2ccc(C)cc2c1NC(=O)C(C)N1CCN(C2CCCCC2)CC1 (configuration not stated) | active: 10.4 µM
28 | CC1CN(C(NC(=O)c2ccccc2)C(Cl)(Cl)Cl)CC(C)O1 (configuration not stated) | inactive
29 | CC(=O)Nc1cccc(NC(=O)CSc2ccc3nnc(CCNC(=O)c4ccccc4)n3n2)c1 | inconclusive: 4.15 µM [inhibitor, single point]
30 | O=S(=O)(c1cccc2nsnc12)N1CCOCC1 | inconclusive: 18.5 µM [inhibitor, single point]
31 | COc1cc2c(cc1OC)[C@H](C)N(C(=O)COc1ccccc1)CC2 | inconclusive: 11.7 µM [inhibitor, partial curve]
32 | COc1cccc(C=Nc2ccc3c(c2)OCCO3)c1O | inconclusive: 18.5 µM [inhibitor, partial curve, poor fit]
33 | COc1ccccc1NC(=O)COC(=O)CC(C)(C)CC1=NS(=O)(=O)c2ccccc2N1 | inconclusive: 11.7 µM [inhibitor, single point]
34 | COc1ccc(/C=C2/SC(=S)N(CCCC(=O)Nc3ccc(O)cc3)C2=O)cc1OC | active: 11.7 µM
35 | COc1ccc(NC(=O)Nc2nnc(Cc3ccccc3)s2)cc1 | inconclusive: 10.4 µM [inhibitor, partial curve]
36 | COc1ccc(/C=C2\CCC(C3CCCC3)C2=O)cc1 (configuration not stated) | inconclusive: 9.28 µM [inhibitor, single point]
37 | NC(=S)N/N=C1\c2ccccc2-c2c(C(=O)O)cccc21 | inconclusive: 16.5 µM [inhibitor, single point]
38 | CCN1CCN(C(=O)c2ccc(CS(=O)Cc3ccc(C)cc3)o2)CC1 (configuration not stated) | inconclusive: 1.47 µM [inhibitor, partial curve, poor fit]
39 | O=C(c1cc(S(=O)(=O)N2CCC3(CC2)OCCO3)ccc1F)N1CCCCC1 | inactive
40 | CCC(NC(=O)c1oc2ccccc2c1COC)c1ccc(OC)cc1 (configuration not stated) | inconclusive: 10.4 µM [inhibitor, single point]
41 | C=CCOc1ccccc1OCC(O)CNC(C)C (configuration not stated) | inactive
42 | CCC1CSC(Nc2ccc(C(=O)/C=C/c3cccc(C)c3)cc2)=N1 (configuration not stated) | inconclusive: 18.5 µM [inhibitor, single point]
43 | COc1ccc(C2C(C(C)=O)=C(C)Nc3ncnn32)c(OC)c1OC (configuration not stated) | inactive
44 | CN(CC(=O)Nc1cccc(F)c1)C(=O)CCc1nc2ccccc2c(=O)[nH]1 | inactive
45 | COc1ccc(Nc2nc(N)c([N+](=O)[O-])c(N3CCOCC3)n2)cc1 | inconclusive: 18.5 µM [inhibitor, single point]
46 | Cc1cccc2cc(C3CC(c4cccs4)=NN3S(C)(=O)=O)c(Cl)nc12 (configuration not stated) | inconclusive: 18.5 µM [inhibitor, single point]

Row | SMILES | Potency
47 | CCOc1[nH]n(-c2ccc(Cl)cc2)c(=O)c1C=Nc1ccc(O)cc1 | inconclusive: 2.62 µM [inhibitor, partial curve, poor fit]
48 | COc1ccc(C2/C(=C(\O)c3ccc4c(c3)OCCO4)C(=O)C(=O)N2CCCN(C)C)cc1 (configuration not stated) | inactive
49 | Cc1ccc2cc(/C=N/Nc3nc4ccccc4[nH]3)c(Cl)nc2c1 | inconclusive: 0.738 µM [inhibitor, full curve, poor fit]
50 | CCOc1ccc(C(=O)NCC(=O)NCCCn2nc(C)cc2C)cc1OCC | inconclusive: 0.131 µM [inhibitor, full curve, poor fit]
51 | CC[C@@]12C(=O)N(c3cccc(F)c3)C(=O)N1[C@H](c1ccc(Cl)cc1)[C@@H]1C(=O)N(C3CCCCC3)C(=O)[C@@H]12 | inconclusive: 10.4 µM [inhibitor, partial curve, poor fit]
52 | CC(C)c1ccc(/C=C/C(=O)NC2CCCCC2)cc1 | inconclusive: 18.5 µM [inhibitor, single point]
53 | O=C(O)Cn1c(-c2ccccc2)nc2ccccc21 | inactive
54 | CCC1=NN2C(=N)/C(=C\c3cccn3-c3ccc(Br)cc3)C(=O)N=C2S1 | inconclusive: 0.185 µM [inhibitor, full curve, poor fit]
55 | Cc1cc(C)cc(N(C(=O)c2csnn2)C(C(=O)NC(C)(C)C)c2cccnc2)c1 (configuration not stated) | inconclusive: 2.94 µM [inhibitor, single point]
56 | O=C(CCl)Nc1ccc(N=Nc2ccccc2)cc1 | inconclusive: 2.94 µM [inhibitor, full curve, poor fit]
57 | CCn1c(O)c2ccc(C(=O)N=NC(=O)c3ccccc3)cc2c1O | inconclusive: 18.5 µM [inhibitor, partial curve, poor fit]
58 | COC(=O)c1ccc(CNCC(=O)Nc2ccc(C(=O)OC)cc2)cc1 | active: 0.928 µM
59 | CCN(CC)CCN1C(=O)C(O)=C(C(C)=O)C1c1ccccc1[N+](=O)[O-] (configuration not stated) | inconclusive: 10.4 µM [inhibitor, single point]
60 | CC(C)(C)CC(C)(C)NC(=S)Nc1ccc2nc(-c3ccccn3)c(-c3ccccn3)nc2c1 | inconclusive: 18.5 µM [inhibitor, single point]
61 | Cc1ccc(C2c3c(-c4ccccc4O)n[nH]c3C(=O)N2Cc2ccncc2)cc1 (configuration not stated) | inconclusive: 5.86 µM [inhibitor, partial curve]
62 | O=C(Nc1ccon1)c1ccc(N2CCCCC2)c([N+](=O)[O-])c1 | inconclusive: 8.28 µM [inhibitor, partial curve, poor fit]
63 | CC(NS(=O)(=O)c1c(N)n(C)c(=O)n(C)c1=O)c1ccccc1 (configuration not stated) | inactive
64 | O=c1c(C(c2ccccc2)c2c(O)nc3n(c2=O)CCS3)c(O)nc2n1CCS2 | inactive
65 | CCn1cc(/C=C(\NC(=O)c2ccccc2F)C(=O)N2CCOCC2)c2ccccc21 | inconclusive: 18.5 µM [inhibitor, single point]
66 | COc1cc2c(cc1OC)C(c1ccccc1N)=NCC2 | active: 1.04 µM
67 | O=c1[nH]c2cc3c(cc2cc1C(c1nnnn1Cc1ccccc1)N1CCCCCC1)OCCO3 (configuration not stated) | inconclusive: 11.7 µM [inhibitor, partial curve, poor fit]

Sorted by molecular weight (ascending): part of the list above
Row | SMILES | Potency
52 | CC(C)c1ccc(/C=C/C(=O)NC2CCCCC2)cc1 | inconclusive: 18.5 µM [inhibitor, single point]
63 | CC(NS(=O)(=O)c1c(N)n(C)c(=O)n(C)c1=O)c1ccccc1 (configuration not stated) | inactive
67 | O=c1[nH]c2cc3c(cc2cc1C(c1nnnn1Cc1ccccc1)N1CCCCCC1)OCCO3 (configuration not stated) | inconclusive: 11.7 µM [inhibitor, partial curve, poor fit]
